These are yes or no findings as the source states them, for the method shown. Binding seen in cells or lysates may run through a third protein. Binding can be weak; no strength is given. Where a sequence is shown, tags or fusion partners need not be part of it.
Target: T1, HA-VPS33B-WT (full-length vacuolar protein sorting 33b) (UniProt Q9H267)
T1 sequence: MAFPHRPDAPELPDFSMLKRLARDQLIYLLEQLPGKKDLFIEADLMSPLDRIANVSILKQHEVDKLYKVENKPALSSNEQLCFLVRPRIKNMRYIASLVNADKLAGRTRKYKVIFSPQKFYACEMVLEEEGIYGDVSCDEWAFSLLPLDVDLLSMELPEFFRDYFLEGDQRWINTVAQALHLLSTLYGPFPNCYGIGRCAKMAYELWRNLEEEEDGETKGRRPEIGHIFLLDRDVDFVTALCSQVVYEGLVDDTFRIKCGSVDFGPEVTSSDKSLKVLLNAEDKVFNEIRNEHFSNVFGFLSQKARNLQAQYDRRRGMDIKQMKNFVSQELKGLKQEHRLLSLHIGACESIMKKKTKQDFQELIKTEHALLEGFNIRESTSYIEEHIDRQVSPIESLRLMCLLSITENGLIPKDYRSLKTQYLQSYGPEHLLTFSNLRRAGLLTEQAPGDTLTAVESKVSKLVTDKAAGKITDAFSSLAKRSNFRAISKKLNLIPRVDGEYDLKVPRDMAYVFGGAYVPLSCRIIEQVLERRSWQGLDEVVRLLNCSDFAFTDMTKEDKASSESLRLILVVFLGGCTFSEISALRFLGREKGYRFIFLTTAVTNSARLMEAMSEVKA
Assay: co-IP; HEK293T cells co-transfected with HA-VPS33B and Flag-ANGPTL2 plasmids; Pierce IP lysis buffer; lysates immunoprecipitated with anti-HA (plus Protein A/G agarose) or anti-Flag M2 beads overnight at 4 °C; beads washed ten times; Western blot

Sequences of proteins named here, by UniProt entry; tags and fusion partners are left off. A change or cut given only in a name is not applied to a line headed by its entry.
UniProt Q9UKU9: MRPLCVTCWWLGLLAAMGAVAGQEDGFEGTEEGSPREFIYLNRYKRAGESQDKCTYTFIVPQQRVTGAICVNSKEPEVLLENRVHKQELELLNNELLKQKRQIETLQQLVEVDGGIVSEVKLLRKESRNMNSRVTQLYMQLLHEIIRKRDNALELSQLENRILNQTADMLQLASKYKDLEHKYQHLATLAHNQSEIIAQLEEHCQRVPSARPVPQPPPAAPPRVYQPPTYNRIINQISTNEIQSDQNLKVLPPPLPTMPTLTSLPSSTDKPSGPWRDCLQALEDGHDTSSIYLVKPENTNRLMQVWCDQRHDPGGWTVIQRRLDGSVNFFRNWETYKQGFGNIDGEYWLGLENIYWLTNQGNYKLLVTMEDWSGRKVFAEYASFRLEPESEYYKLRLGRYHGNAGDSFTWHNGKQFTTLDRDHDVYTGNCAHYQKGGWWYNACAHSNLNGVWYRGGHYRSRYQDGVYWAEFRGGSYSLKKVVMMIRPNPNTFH

| Substance | binding |
| --- | --- |
| Flag-ANGPTL2-N (N-terminal region, aa1-aa246) (from UniProt Q9UKU9) (domain or fragment) | no binding |
| Flag-ANGPTL2-C (C-terminal region, aa247-aa471) (from UniProt Q9UKU9) (domain or fragment) | binds |
